The results in this text go back to ChEMBL document CHEMBL1127350, “The squalestatins: novel inhibitors of squalene synthase. Enzyme inhibitory activities and in vivo evaluation of C1-modified analogues” (J Med Chem, 1994).

SMILES strings stand for the structures. pIC50: −log10 of the molar value.

For the assay, the target named is T1, Squalene synthase (Rattus norvegicus, UniProt Q02769).
T1 sequence (Q02769 whole entry): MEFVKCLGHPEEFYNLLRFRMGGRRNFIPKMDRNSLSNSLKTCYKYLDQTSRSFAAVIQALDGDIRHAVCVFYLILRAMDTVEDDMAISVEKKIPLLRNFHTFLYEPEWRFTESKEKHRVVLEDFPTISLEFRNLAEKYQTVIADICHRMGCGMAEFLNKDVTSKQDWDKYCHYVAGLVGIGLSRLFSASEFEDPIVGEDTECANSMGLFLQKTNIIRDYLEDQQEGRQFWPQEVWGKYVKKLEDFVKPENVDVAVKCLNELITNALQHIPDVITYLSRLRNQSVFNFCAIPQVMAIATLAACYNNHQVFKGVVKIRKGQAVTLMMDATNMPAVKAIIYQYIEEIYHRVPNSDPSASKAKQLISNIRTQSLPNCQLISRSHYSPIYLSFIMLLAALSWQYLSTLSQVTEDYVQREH
The assay can be described thus: Inhibition of juvenile male rat liver microsomal squalene synthase. On the technique in general: Liver microsomes are vesicles of endoplasmic reticulum, rich in cytochrome P450 enzymes.

What is called pIC50 is the negative decadic logarithm of the IC50, by convention in mol/L. Higher therefore signals a low IC50. For the compound `C=C(CC[C@]12O[C@H](C(=O)O)[C@@](O)(C(=O)O)[C@](C(=O)O)(O1)[C@H](O)[C@H]2O)[C@H](OC(C)=O)[C@@H](C)Cc1ccccc1`, the pIC50 is 7.59.
